This test deals with T1, syntaxin 18 SNARE domain (aa 229-312) (Mus musculus, UniProt Q8VDS8 229-312).
T1 sequence: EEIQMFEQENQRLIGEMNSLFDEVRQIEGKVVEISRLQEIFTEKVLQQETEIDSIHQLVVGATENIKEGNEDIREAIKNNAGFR
Kind of test: native gel or EMSA + SEC.

Results on two substances are retold here after doi:10.1101/2024.04.24.590896 (bioRxiv, 2024).

No constants are given. Whether binding was seen depends on the method and setting. Some results given as binding are weak or reduced against the parent protein; the word gives no strength.

Regarding “Mixed_SNAP1 (Membrin, aa 119-189; Use1, aa 174-239) (from UniProt O35166;Q9CQ56)”, the binding entry is given as “binds”.
Take “Mixed_SNAP2 (Sec20, aa 133-198; Bet1, aa 1-95) (from UniProt Q6QD59;O35623)”: the binding result is on record as “binds”.
